Reference: paper PMC4815267
No constants are given. Whether binding was seen depends on the method and setting. Binding seen in cells or lysates may run through a third protein. Some entries that bind do so weakly or less than the wild type.

Amino acid sequences for entries named in this document (tags omitted).
UniProt Q92793: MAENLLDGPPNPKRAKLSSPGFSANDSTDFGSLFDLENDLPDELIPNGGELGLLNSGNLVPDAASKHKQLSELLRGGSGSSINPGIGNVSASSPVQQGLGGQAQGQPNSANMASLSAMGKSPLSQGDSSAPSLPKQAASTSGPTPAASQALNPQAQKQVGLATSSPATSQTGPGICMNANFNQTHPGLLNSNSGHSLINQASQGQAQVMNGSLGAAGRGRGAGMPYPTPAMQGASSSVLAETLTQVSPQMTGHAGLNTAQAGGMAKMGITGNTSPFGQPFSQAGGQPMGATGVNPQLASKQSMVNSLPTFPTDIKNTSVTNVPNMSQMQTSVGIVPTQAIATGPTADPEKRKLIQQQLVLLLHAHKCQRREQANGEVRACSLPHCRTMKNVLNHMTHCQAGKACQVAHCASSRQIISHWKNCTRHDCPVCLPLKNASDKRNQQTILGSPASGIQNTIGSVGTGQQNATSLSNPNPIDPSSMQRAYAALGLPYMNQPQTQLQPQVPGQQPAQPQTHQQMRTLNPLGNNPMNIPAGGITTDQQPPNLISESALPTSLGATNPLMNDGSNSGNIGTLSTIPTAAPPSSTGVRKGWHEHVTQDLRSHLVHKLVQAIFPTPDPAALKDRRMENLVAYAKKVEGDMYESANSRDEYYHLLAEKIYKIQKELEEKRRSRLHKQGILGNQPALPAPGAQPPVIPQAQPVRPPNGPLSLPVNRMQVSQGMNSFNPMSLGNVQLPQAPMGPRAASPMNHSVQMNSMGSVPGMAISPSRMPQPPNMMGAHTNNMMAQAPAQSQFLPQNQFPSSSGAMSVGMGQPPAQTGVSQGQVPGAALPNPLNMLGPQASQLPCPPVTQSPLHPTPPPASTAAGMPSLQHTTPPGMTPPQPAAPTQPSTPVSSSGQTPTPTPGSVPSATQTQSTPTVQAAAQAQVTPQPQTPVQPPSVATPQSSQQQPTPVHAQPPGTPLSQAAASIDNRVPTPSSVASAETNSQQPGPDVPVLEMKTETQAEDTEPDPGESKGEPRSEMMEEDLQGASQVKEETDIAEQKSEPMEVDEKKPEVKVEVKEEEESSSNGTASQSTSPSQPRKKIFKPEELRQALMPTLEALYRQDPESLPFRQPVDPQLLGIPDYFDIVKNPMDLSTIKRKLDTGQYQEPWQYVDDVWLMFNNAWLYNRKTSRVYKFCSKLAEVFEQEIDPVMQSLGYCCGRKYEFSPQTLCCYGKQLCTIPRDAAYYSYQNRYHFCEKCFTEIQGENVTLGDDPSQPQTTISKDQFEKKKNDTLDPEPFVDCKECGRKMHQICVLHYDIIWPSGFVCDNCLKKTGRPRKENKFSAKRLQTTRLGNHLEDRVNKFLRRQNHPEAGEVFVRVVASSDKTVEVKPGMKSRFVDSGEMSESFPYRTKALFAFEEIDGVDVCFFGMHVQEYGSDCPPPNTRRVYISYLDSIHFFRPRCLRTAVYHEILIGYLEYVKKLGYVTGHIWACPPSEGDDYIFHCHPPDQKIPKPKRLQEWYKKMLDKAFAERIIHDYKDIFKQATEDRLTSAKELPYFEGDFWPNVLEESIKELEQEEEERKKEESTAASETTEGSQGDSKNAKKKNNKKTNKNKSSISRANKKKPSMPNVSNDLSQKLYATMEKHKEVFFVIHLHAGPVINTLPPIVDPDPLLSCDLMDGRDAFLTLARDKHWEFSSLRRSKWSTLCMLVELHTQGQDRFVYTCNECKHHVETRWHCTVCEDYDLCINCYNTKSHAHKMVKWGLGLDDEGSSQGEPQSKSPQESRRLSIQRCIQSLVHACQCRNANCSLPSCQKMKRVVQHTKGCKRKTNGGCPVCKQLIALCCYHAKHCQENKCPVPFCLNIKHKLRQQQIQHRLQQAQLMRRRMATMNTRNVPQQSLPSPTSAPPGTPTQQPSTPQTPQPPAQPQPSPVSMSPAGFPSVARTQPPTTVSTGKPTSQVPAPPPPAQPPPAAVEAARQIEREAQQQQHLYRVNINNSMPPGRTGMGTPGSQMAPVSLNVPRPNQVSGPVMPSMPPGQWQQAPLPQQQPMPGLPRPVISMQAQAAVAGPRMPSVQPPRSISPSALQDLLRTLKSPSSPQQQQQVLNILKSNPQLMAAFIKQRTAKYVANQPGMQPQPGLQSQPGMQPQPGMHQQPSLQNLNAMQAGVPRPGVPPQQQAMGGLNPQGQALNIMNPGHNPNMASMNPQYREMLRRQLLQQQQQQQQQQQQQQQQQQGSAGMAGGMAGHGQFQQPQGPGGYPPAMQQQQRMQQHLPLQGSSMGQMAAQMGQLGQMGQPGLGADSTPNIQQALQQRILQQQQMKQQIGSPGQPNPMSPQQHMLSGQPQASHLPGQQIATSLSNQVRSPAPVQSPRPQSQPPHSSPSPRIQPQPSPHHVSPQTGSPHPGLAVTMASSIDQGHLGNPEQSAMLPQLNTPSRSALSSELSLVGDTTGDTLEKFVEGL

Assays:
[1] = target: T1, Nemo-like kinase (human (endogenous in LNCaP)) (UniProt Q9UBE8); assay: co-IP; 500 ug LNCaP whole cell lysate incubated with 2 ug rabbit anti-NLK or mouse anti-CBP antibody overnight at 4 °C, protein A-Sepharose beads 2 h at 4 °C; control IPs with rabbit or mouse IgG; precipitates analysed by Western blot
T1 sequence: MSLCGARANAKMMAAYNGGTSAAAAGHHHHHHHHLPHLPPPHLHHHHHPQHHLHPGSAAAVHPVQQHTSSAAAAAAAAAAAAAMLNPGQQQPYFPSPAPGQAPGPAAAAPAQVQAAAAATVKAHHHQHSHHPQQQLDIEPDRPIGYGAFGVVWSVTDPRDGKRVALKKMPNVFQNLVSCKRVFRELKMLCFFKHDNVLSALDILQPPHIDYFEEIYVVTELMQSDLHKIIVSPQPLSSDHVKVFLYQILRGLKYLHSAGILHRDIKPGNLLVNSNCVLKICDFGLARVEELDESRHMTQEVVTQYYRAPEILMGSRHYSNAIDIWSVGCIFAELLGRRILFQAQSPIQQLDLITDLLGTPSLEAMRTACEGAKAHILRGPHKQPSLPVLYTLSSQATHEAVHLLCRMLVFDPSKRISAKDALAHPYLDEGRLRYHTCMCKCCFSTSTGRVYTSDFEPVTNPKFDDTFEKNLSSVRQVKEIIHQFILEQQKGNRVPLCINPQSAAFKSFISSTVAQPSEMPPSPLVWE

[2] = target: CREB binding protein (human (endogenous in LNCaP)) (UniProt Q92793); assay: as above

CREB binding protein (from UniProt Q92793 1-2442)
binding [1]: binds

B1: Nemo-like kinase (protein, UniProt Q9UBE8 1-527)
chain: MSLCGARANAKMMAAYNGGTSAAAAGHHHHHHHHLPHLPPPHLHHHHHPQHHLHPGSAAAVHPVQQHTSSAAAAAAAAAAAAAMLNPGQQQPYFPSPAPGQAPGPAAAAPAQVQAAAAATVKAHHHQHSHHPQQQLDIEPDRPIGYGAFGVVWSVTDPRDGKRVALKKMPNVFQNLVSCKRVFRELKMLCFFKHDNVLSALDILQPPHIDYFEEIYVVTELMQSDLHKIIVSPQPLSSDHVKVFLYQILRGLKYLHSAGILHRDIKPGNLLVNSNCVLKICDFGLARVEELDESRHMTQEVVTQYYRAPEILMGSRHYSNAIDIWSVGCIFAELLGRRILFQAQSPIQQLDLITDLLGTPSLEAMRTACEGAKAHILRGPHKQPSLPVLYTLSSQATHEAVHLLCRMLVFDPSKRISAKDALAHPYLDEGRLRYHTCMCKCCFSTSTGRVYTSDFEPVTNPKFDDTFEKNLSSVRQVKEIIHQFILEQQKGNRVPLCINPQSAAFKSFISSTVAQPSEMPPSPLVWE
binding [2]: binds
